The supplement of paper PMC10331698
± gives the standard deviation of the averaged measurements. Small differences around the control level are noise.

Legend:
Experiment in all cases: level (log10 ratio to DMSO vehicle control); higher = higher biomarker level / cell amount than vehicle control
[1] = compound: O=C(O)C(F)(F)C(F)(F)C(F)(F)C(F)(F)C(F)(F)C(F)(F)C(F)(F)C(F)(F)C(F)(F)C(F)F [11-H-Perfluoroundecanoic acid]; conditions: 2200 nM; in DMSO
Protocol: (§1)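 BioMAP Diversity Plus panel of 12 human primary cell co-culture systems (3C, 4H, LPS, SAg, BT, BF4T, BE3C, CASM3C, HDF3CGF, KF3CT, MyoF, Mphg). Compounds were added 1 h before stimulation and left for 24 h (MyoF 48 h; BT 72 h for soluble read-outs or 6 d for IgG). Biomarkers were read by ELISA, cytotoxicity by SRB, PBMC viability and proliferation by Alamar Blue. Each well value was divided by the mean of 8 DMSO control wells on the same plate and log10 transformed; duplicate blinded samples were tested at 4 concentrations.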

Perfluoropentanoic acid = compound: O=C(O)C(F)(F)C(F)(F)C(F)(F)C(F)(F)F [Perfluoropentanoic acid]; conditions: in DMSO
Protocol: as §1

Octafluoroadipic acid = compound: O=C(O)C(F)(F)C(F)(F)C(F)(F)C(F)(F)C(=O)O [Octafluoroadipic acid]; conditions: 2200 nM; in DMSO
Protocol: as §1

[2] = compound: O=S(=O)(O)CCC(F)(F)C(F)(F)C(F)(F)C(F)(F)C(F)(F)C(F)(F)C(F)(F)C(F)(F)F [8:2 Fluorotelomer sulfonic acid]; conditions: in DMSO
Protocol: as §1

[3] = compound: FC(F)(F)C(F)(F)C(F)(F)C(F)(F)C(F)(F)C(F)(F)CC1CO1 [3-(Perfluorohexyl)-1,2-epoxypropane]; conditions: 2200 nM; in DMSO
Protocol: as §1

[4] = compound: Cc1ccc(S(=O)(=O)OCC(F)(F)C(F)(F)C(F)(F)C(F)(F)C(F)(F)C(F)F)cc1 [1H,1H,7H-Perfluoroheptyl 4-methylbenzenesulfonate]; conditions: 2200 nM; in DMSO
Protocol: as §1

Perfluoroheptanoic acid = compound: O=C(O)C(F)(F)C(F)(F)C(F)(F)C(F)(F)C(F)(F)C(F)(F)F [Perfluoroheptanoic acid]; conditions: in DMSO
Protocol: as §1

[5] = compound: CCN(CCO)S(=O)(=O)C(F)(F)C(F)(F)C(F)(F)C(F)(F)C(F)(F)C(F)(F)C(F)(F)C(F)(F)F [N-Ethyl-N-(2-hydroxyethyl)perfluorooctanesulfonamide]; conditions: in DMSO
Protocol: as §1

[6] = compound: O=C(O)C(F)(F)C(F)(F)C(F)(F)OC(F)(F)F [Perfluoro(4-methoxybutanoic) acid]; conditions: 2200 nM; in DMSO
Protocol: as §1

1H,1H-Heptafluorobutanol = compound: OCC(F)(F)C(F)(F)C(F)(F)F [1H,1H-Heptafluorobutanol]; conditions: 2200 nM; in DMSO
Protocol: as §1

Heptafluorobutyramide = compound: NC(=O)C(F)(F)C(F)(F)C(F)(F)F [Heptafluorobutyramide]; conditions: 2200 nM; in DMSO
Protocol: as §1

[7] = compound: NCC(F)(F)C(F)(F)C(F)(F)C(F)(F)C(F)(F)C(F)(F)C(F)(F)F [1H,1H-Perfluorooctylamine]; conditions: 2200 nM; in DMSO
Protocol: as §1

[8] = compound: CN(C(=O)C(F)(F)C(F)(F)C(F)(F)F)[Si](C)(C)C [N-Methyl-N-trimethylsilylheptafluorobutyramide]; conditions: 2200 nM; in DMSO
Protocol: as §1

[9] = compound: CC(C)(C)C(=O)CC(=O)C(F)(F)C(F)(F)C(F)(F)F [(Heptafluorobutanoyl)pivaloylmethane]; conditions: 2200 nM; in DMSO
Protocol: as §1

[10] = compound: OCCC(F)(F)C(F)(F)C(F)(F)C(F)(F)C(F)(F)C(F)(F)F [6:2 Fluorotelomer alcohol]; conditions: 2200 nM; in DMSO
Protocol: as §1

1-(Perfluorohexyl)octane = compound: CCCCCCCCC(F)(F)C(F)(F)C(F)(F)C(F)(F)C(F)(F)C(F)(F)F [1-(Perfluorohexyl)octane]; conditions: in DMSO
Protocol: as §1

| Test System | level (log10) [1] | level (log10) (Perfluoropentanoic acid; 2200 nM) | level (log10) (Perfluoropentanoic acid; 6700 nM) | level (log10) (Perfluoropentanoic acid; 20000 nM) | level (log10) (Perfluoropentanoic acid; 60000 nM) | level (log10) (Octafluoroadipic acid) | level (log10) ([2]; 2200 nM) | level (log10) ([2]; 6700 nM) | level (log10) ([2]; 20000 nM) | level (log10) ([2]; 60000 nM) | level (log10) [3] | level (log10) [4] | level (log10) (Perfluoroheptanoic acid; 2200 nM) | level (log10) (Perfluoroheptanoic acid; 6700 nM) | level (log10) (Perfluoroheptanoic acid; 20000 nM) | level (log10) (Perfluoroheptanoic acid; 60000 nM) | level (log10) ([5]; 2200 nM) | level (log10) ([5]; 6700 nM) | level (log10) ([5]; 20000 nM) | level (log10) [6] | level (log10) (1H,1H-Heptafluorobutanol) | level (log10) (Heptafluorobutyramide) | level (log10) [7] | level (log10) [8] | level (log10) [9] | level (log10) [10] | level (log10) (1-(Perfluorohexyl)octane; 740 nM) | level (log10) (1-(Perfluorohexyl)octane; 2200 nM) |
| --- | --- | --- | --- | --- | --- | --- | --- | --- | --- | --- | --- | --- | --- | --- | --- | --- | --- | --- | --- | --- | --- | --- | --- | --- | --- | --- | --- | --- |
| HDF3CGF:SRB | 0.0415 ± 0.026 | -0.0115 ± 0.0078 | 0.012 ± 0.011 | 0.01 ± 0.018 | 0.0125 ± 0.03 | 0.0045 ± 0.0035 | -0.032 ± 0.0071 | -0.044 ± 0.064 | -0.017 ± 0.1 | 0.168 ± 0.037 | -0.0465 ± 0.044 | -0.0365 ± 0.026 | -0.0305 ± 0.018 | -0.029 ± 0.016 | 0.0125 ± 0.064 | -0.045 ± 0.052 | -0.0565 ± 0.052 | -0.127 ± 0.011 | -0.153 ± 0.084 | -0.0005 ± 0.0064 | -0.0035 ± 0.063 | 0.016 ± 0.034 | 0.004 ± 0.017 | 0.022 ± 0.031 | -0.028 ± 0.04 | -0.027 ± 0.054 | -0.009 ± 0.027 | -0.014 ± 0.041 |
| 3C:CD54/ICAM-1 | 0.0005 ± 0.011 | -0.0155 ± 0.012 | -0.0145 ± 0.03 | -0.028 ± 0.021 | -0.0075 ± 0.022 | -0.0165 ± 0.018 | -0.013 ± 0.0057 | -0.008 ± 0.0099 | 0.003 ± 0.013 | 0.034 ± 0.0042 | 0.0115 ± 0.013 | 0.009 ± 0.0057 | 0.012 ± 0.0028 | 0.0025 ± 0.0035 | -0.0095 ± 0.0092 | 0.008 ± 0.023 | -0.004 ± 0.03 | 0.03 ± 0.013 | 0.075 ± 0.065 | -0.026 ± 0.011 | 0.011 ± 0.021 | -0.0275 ± 0.022 | -0.0015 ± 0.033 | -0.012 ± 0.0028 | 0.0115 ± 0.033 | -0.009 ± 0.014 | 0.003 ± 0.014 | 0.0195 ± 0.005 |
| LPS:sTNF-alpha | 0.008 ± 0.0042 | 0.006 ± 0.011 | 0.003 ± 0.021 | 0.01 ± 0.0071 | 0.021 ± 0.014 | 0.0065 ± 0.0078 | 0.0035 ± 0.0078 | 0.0095 ± 0.011 | -0.006 ± 0.0099 | -0.212 ± 0.12 | 0.0435 ± 0.026 | -0.01 ± 0.025 | 0.0065 ± 0.093 | -0.0265 ± 0.054 | -0.049 ± 0.0071 | -0.0215 ± 0.046 | -0.0015 ± 0.0078 | -0.006 ± 0.0028 | -0.005 ± 0.0085 | -0.0085 ± 0.026 | -0.004 ± 0.0042 | 0.0005 ± 0.0064 | -0.003 ± 0.021 | -0.0055 ± 0.0035 | -0.053 ± 0.0085 | 0.031 ± 0.089 | 0.001 ± 0.0028 | 0.0025 ± 0.013 |
| HDF3CGF:CXCL8/IL-8 | 0.008 ± 0.0014 | -0.007 ± 0.0071 | 0.003 ± 0.0057 | -0.006 ± 0.0028 | 0.002 ± 0.023 | 0 ± 0.0071 | 0.001 ± 0.0028 | -0.0145 ± 0.0064 | -0.0045 ± 0.0035 | -0.0015 ± 0.026 | -0.0055 ± 0.015 | 0.0115 ± 0.005 | -0.004 ± 0.0042 | -0.0055 ± 0.0078 | -0.0055 ± 0.0064 | 0.0095 ± 0.013 | 0.0115 ± 0.021 | 0.0345 ± 0.016 | 0.011 ± 0.0071 | -0.001 ± 0.017 | 0 ± 0.0028 | -0.0085 ± 0.005 | -0.0075 ± 0.015 | 0.0115 ± 0.011 | 0.0035 ± 0.005 | 0.006 ± 0.0071 | 0.007 ± 0.011 | -0.0065 ± 0.0035 |
| 4H:CD106/VCAM-1 | 0.01 ± 0.034 | 0.0105 ± 0.016 | 0.002 ± 0.038 | 0.0125 ± 0.0021 | 0.024 ± 0.013 | -0.003 ± 0.016 | -0.0105 ± 0.035 | -0.0065 ± 0.025 | -0.018 ± 0.0014 | -0.0375 ± 0.0021 | 0.007 ± 0.0042 | 0.0405 ± 0.09 | 0.037 ± 0.02 | 0.0215 ± 0.035 | 0.0045 ± 0.049 | 0.007 ± 0.017 | 0.062 ± 0.0057 | 0.116 ± 0.021 | 0.0765 ± 0.0021 | 0.008 ± 0.021 | 0.029 ± 0.0085 | -0.017 ± 0.044 | 0.0245 ± 0.00071 | 0.0305 ± 0.061 | 0.013 ± 0.014 | 0.0055 ± 0.00071 | -0.0075 ± 0.046 | 0.0115 ± 0.016 |
| HDF3CGF:EGFR | 0.0195 ± 0.042 | 0.0275 ± 0.005 | 0.008 ± 0.02 | -0.0265 ± 0.013 | -0.008 ± 0.027 | 0.029 ± 0.033 | -0.006 ± 0.045 | -0.011 ± 0.033 | -0.0455 ± 0.03 | -0.101 ± 0.026 | -0.0065 ± 0.0078 | 0.024 ± 0.027 | 0.0035 ± 0.0021 | -0.008 ± 0.016 | 0.004 ± 0.0028 | 0.01 ± 0.023 | -0.028 ± 0.0085 | -0.102 ± 0.024 | -0.115 ± 0.0021 | -0.007 ± 0.078 | -0.048 ± 0.028 | -0.0045 ± 0.049 | -0.058 ± 0.04 | 0.0105 ± 0.022 | -0.05 ± 0.095 | 0.018 ± 0.02 | 0.005 ± 0.025 | 0.004 ± 0.013 |
| HDF3CGF:CD106/VCAM-1 | -0.0605 ± 0.14 | -0.0025 ± 0.00071 | -0.0095 ± 0.005 | 0.0035 ± 0.036 | 0.0035 ± 0.022 | -0.0255 ± 0.0035 | -0.0055 ± 0.12 | 0.0015 ± 0.091 | 0.007 ± 0.073 | -0.072 ± 0.045 | -0.0195 ± 0.04 | -0.035 ± 0.0099 | -0.019 ± 0.0014 | -0.034 ± 0.027 | -0.0135 ± 0.029 | -0.021 ± 0.038 | -0.0215 ± 0.042 | -0.0825 ± 0.046 | -0.173 ± 0.11 | 0.0105 ± 0.0035 | -0.0775 ± 0.00071 | -0.0265 ± 0.016 | -0.0515 ± 0.012 | -0.01 ± 0.011 | -0.046 ± 0.04 | -0.016 ± 0.013 | -0.026 ± 0.023 | -0.031 ± 0.03 |
| SAg:PBMC Cytotoxicity | 0.0175 ± 0.049 | -0.0045 ± 0.053 | -0.0105 ± 0.023 | -0.0135 ± 0.012 | 0.0145 ± 0.022 | -0.0005 ± 0.0035 | 0.017 ± 0.013 | -0.0125 ± 0.015 | 0 ± 0.0042 | 0.0075 ± 0.0021 | 0.007 ± 0.082 | 0.01 ± 0.045 | 0.011 ± 0.034 | 0.0255 ± 0.0021 | 0.0095 ± 0.019 | 0.0195 ± 0.026 | 0.0035 ± 0.04 | -0.039 ± 0.052 | -0.0865 ± 0.042 | -0.004 ± 0.0042 | 0.02 ± 0.031 | -0.0155 ± 0.0035 | 0.024 ± 0.011 | 0.026 ± 0.014 | -0.0015 ± 0.046 | 0.021 ± 0.031 | 0.012 ± 0.045 | -0.001 ± 0.042 |
